Measured data: PubChem BioAssay AID743458 (Peter MacCallum Cancer Centre, 2014)

- Purpose: 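Identify genes whose loss lifts vorinostat resistance in colon cancer cells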 (follow-up of hits)
- Cells: human HCT116-VR colon cancer cells made resistant to vorinostat
- Reagent: single siRNA or pool against human genes, 25 nM per single siRNA
- Time to read-out: about 72 h after transfection, including 24 h of drug
- Treatment: vorinostat, 2.5 µM final, for 24 h
- Read-out: 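Live-cell fluorescent viability and luminescent caspase 3/7 activity after vorinostat treatment, background subtracted, mean of duplicate plates, as fold change over mock-transfected wells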
- Scale: viability relative to mock: higher = more living cells than mock; caspase activity relative to mock: higher = more apoptosis than mock
- Hit rule: 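An siRNA counts as active if classed as reduced viability or as caspase activation, otherwise inactive; a hit class needed wells that remained healthy in the absence of drug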
The whole screen tested about 1,800 reagents; shown is an unselected part. 732 of them (41%) were called active. 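Calls are per siRNA reagent; a gene was deemed confirmed only if most of its four siRNAs scored.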

gene,PubChem SID,viability relative to mock,caspase activity relative to mock,viability hit class,caspase hit class,Outcome
ZNF618,SID134295593,1.09,1.23,no change,no change,inactive
ZNF618,SID134295595,0.74,2.94,no change,caspase activation,active
ZNF618,SID134295596,0.86,1.52,no change,no change,inactive
ZNF618,SID135617132,0.92,2.91,no change,caspase activation,active
POLR2J,SID134255857,0.44,4.05,reduced viability,caspase activation,active
POLR2J,SID134255858,0.76,1.92,no change,no change,inactive
POLR2J,SID134255859,0.5,3.64,reduced viability,caspase activation,active
POLR2J,SID134255860,0.82,1.95,no change,no change,inactive
DNAJA2,SID134255321,1.04,1.19,no change,no change,inactive
DNAJA2,SID134255322,0.12,2.11,reduced viability,no change,active
DNAJA2,SID134255323,0.88,1.48,no change,no change,inactive
DNAJA2,SID134255324,0.92,0.84,no change,no change,inactive
AMDHD2,SID134243765,0.86,3.56,no change,caspase activation,active
AMDHD2,SID134243766,0.81,1.47,no change,no change,inactive
AMDHD2,SID134243767,0.54,4.12,reduced viability,caspase activation,active
AMDHD2,SID134243768,0.72,2.99,no change,caspase activation,active
RPA2,SID134273813,0.68,2,no change,no change,inactive
RPA2,SID134273814,0.74,4.07,no change,caspase activation,active
RPA2,SID134273815,0.58,4.23,no change,caspase activation,active
RPA2,SID134273816,0.68,2.05,no change,no change,inactive
NUDT10,SID134294285,0.85,1.37,no change,no change,inactive
NUDT10,SID134294286,1.13,1.8,no change,no change,inactive
NUDT10,SID134294287,0.36,1.65,reduced viability,no change,active
NUDT10,SID134294288,0.34,3.92,reduced viability,caspase activation,active
PRPF38A,SID134265409,0.73,1.19,no change,no change,inactive
PRPF38A,SID134265410,0.38,1.73,reduced viability,no change,active
PRPF38A,SID134265411,0.51,1.1,reduced viability,no change,active
PRPF38A,SID134265412,0.9,1.1,no change,no change,inactive
MICU1,SID134257645,0.84,1.99,no change,no change,inactive
MICU1,SID134257646,1.03,1.02,no change,no change,inactive
MICU1,SID134257647,0.93,2.25,no change,no change,inactive
MICU1,SID134257648,0.5,2.04,reduced viability,no change,active
EIF3I,SID134282981,0.39,0.94,reduced viability,no change,active
EIF3I,SID134282982,0.48,0.65,reduced viability,no change,active
EIF3I,SID134282983,0.4,0.7,reduced viability,no change,active
EIF3I,SID135615917,0.46,0.54,reduced viability,no change,active
OR4K5,SID134309429,0.74,2.54,no change,no change,inactive
OR4K5,SID134309430,0.34,4.78,reduced viability,caspase activation,active
OR4K5,SID134309431,0.74,1.75,no change,no change,inactive
OR4K5,SID134309432,0.84,1.27,no change,no change,inactive
DNAI2,SID134263113,0.82,2.36,no change,no change,inactive
DNAI2,SID134263115,0.83,1.56,no change,no change,inactive
DNAI2,SID134263116,0.98,1.29,no change,no change,inactive
DNAI2,SID135614318,0.23,3.29,reduced viability,caspase activation,active
KIAA1191,SID134267629,0.6,2.01,no change,no change,inactive
KIAA1191,SID134267630,0.26,1.17,no change,no change,inactive
KIAA1191,SID134267631,0.76,2.38,no change,no change,inactive
KIAA1191,SID135614714,0.84,1.45,no change,no change,inactive
SMURF2,SID134238981,0.88,1.54,no change,no change,inactive
SMURF2,SID134238982,0.9,1.69,no change,no change,inactive
SMURF2,SID134238983,0.64,1.78,no change,no change,inactive
SMURF2,SID134238984,0.94,0.92,no change,no change,inactive
RBBP8,SID134252601,0.86,3.66,no change,caspase activation,active
RBBP8,SID134252602,0.7,2.52,no change,no change,inactive
RBBP8,SID134252603,0.7,3.78,no change,caspase activation,active
RBBP8,SID134252604,0.76,1.59,no change,no change,inactive
LSM14A,SID134262189,0.98,2.21,no change,no change,inactive
LSM14A,SID134262190,0.36,4.65,reduced viability,caspase activation,active
LSM14A,SID134262191,0.86,0.95,no change,no change,inactive
LSM14A,SID134262192,0.94,0.95,no change,no change,inactive
LSM14A,SID134318116,0.81,3.84,no change,caspase activation,active

In a second layout: results already given.
{"gene":"MICU1","PubChem SID":"SID134257645","viability relative to mock":0.84,"caspase activity relative to mock":1.99,"viability hit class":"no change","caspase hit class":"no change","Outcome":"inactive"}
{"gene":"MICU1","PubChem SID":"SID134257646","viability relative to mock":1.03,"caspase activity relative to mock":1.02,"viability hit class":"no change","caspase hit class":"no change","Outcome":"inactive"}
{"gene":"MICU1","PubChem SID":"SID134257647","viability relative to mock":0.93,"caspase activity relative to mock":2.25,"viability hit class":"no change","caspase hit class":"no change","Outcome":"inactive"}
{"gene":"MICU1","PubChem SID":"SID134257648","viability relative to mock":0.5,"caspase activity relative to mock":2.04,"viability hit class":"reduced viability","caspase hit class":"no change","Outcome":"active"}
{"gene":"EIF3I","PubChem SID":"SID134282981","viability relative to mock":0.39,"caspase activity relative to mock":0.94,"viability hit class":"reduced viability","caspase hit class":"no change","Outcome":"active"}
